These are yes or no findings as the source states them, for the method shown. Some entries that bind do so weakly or less than the wild type.
Experiments:
[1] = target: T1, TNF-β (UniProt P01374); assay: ELISA (FIG. 7): purified native TR1 receptor in 96-well plate, 10 ng TNF-β added, detected with phosphatase-labeled polyclonal anti-TNF-β antibody
T1 sequence (looked up): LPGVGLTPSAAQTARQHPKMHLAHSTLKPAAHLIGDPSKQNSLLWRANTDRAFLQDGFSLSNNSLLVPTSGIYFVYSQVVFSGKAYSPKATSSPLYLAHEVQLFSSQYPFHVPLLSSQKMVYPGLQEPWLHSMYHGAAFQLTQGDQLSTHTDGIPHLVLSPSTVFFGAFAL

Sequences of proteins named here, by UniProt entry; tags and fusion partners are left off. Residues count along the entry.
UniProt P01375, residues 77-233: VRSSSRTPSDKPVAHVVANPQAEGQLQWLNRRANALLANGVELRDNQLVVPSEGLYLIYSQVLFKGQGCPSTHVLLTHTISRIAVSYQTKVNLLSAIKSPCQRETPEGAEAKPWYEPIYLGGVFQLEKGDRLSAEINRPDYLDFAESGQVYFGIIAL

[2] = target: TNF-α (UniProt P01375); assay: ELISA (FIG. 7): purified native TR1 receptor in 96-well plate, 10 ng TNF-α added, detected with phosphatase-labeled polyclonal anti-TNF-α antibody

B1: native TR1 receptor (purified soluble native TR1 receptor, HSABH13 protein) (receptor)
chain: ETFPPKYLHYDEETSHQLLCDKCPPGTYLKQHCTAKWKTVCAPCPDHYYTDSWHTSDECLYCSPVCKELQYVKQECNRTHNRVCECKEGRYLEIEFCLKHRSCPPGFGVVQAGTPERNTVCKRCPDGFFSNETSSKAPCRKHTNCSVFGLLLTQKGNATHDNICSGNSESTQKCGIDVTLCEEAFFRFAVPTKFTPNWLSVLVDNLPGTKVNAESVERIKRQHSSQEQTFQLLKLWKHQNKDQDIVKKIIQDIDLCENSVQRHIGHANLTFEQLRSLMESLPGKKVGAEDIEKTIKACKPSDQILKLLSLWRIKNGDQDTLKGLMHALKHSKTYHFPKTVTQSLKKTIRFLHSFTMYKLYQKLFLEMIGNQVQSVKISCL
binding [1]: binds | binding [2]: binds
